Measured values: PubChem BioAssay AID686920 (Broad Institute, 2013)
All entries are inconclusive by the source's own rule. Clear calls are listed elsewhere.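 The calls were made as follows: active = fitted curve reaching 35% inhibition at a dose no higher than twice the top valid tested dose; inconclusive = flat fit with 30 to 70% inhibition, or a poor fit; inactive = the rest, including activity in the opposite direction.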

Experiment: suppressors of NR0B1-promoter luciferase reporter, dose response, EWS/Fli inhibitor project, luciferase luminescence, A673 cells, cherry-pick (AID 686920)
Conditions: viability-normalised luminescence; at 68 µM (top of the series)

| Structure (SMILES) | activity change, negative = inhibition |
| --- | --- |
| Cc1nc(N)nc(N)c1/C=C/C(C)(C)c1ccc(Cl)cc1 | inconclusive: -74.6% |
| Nc1ccc(Cn2ccc3c4c(N)nc(N)nc4ccc32)cc1 | inconclusive: -64.6% |
